PubChem BioAssay AID1224830 | NIAID, 2016

Aim: 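Genes whose knock-down alters the TNF-alpha reporter response to LPS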 (primary screen)
Cell system: human THP-1 monocytic leukaemia cells, TNF dual-luciferase reporter clone, PMA-differentiated to macrophage-like cells
Reagents: siRNA pool against human genes, 50 nM
Duration: LPS for 4 h, given about 3 days after siRNA transfection
Treatment: bacterial LPS (TLR4 ligand), 10 ng/ml
Measured: 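TNF firefly reporter luminescence divided by renilla, normalised to the plate median, then turned into a robust z-score for each replicate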
Reading the numbers: TNF reporter robust z-score: higher = stronger TNF reporter response to LPS
Hit rule: 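Each well counts as active if its z-score is over 2.8 or under -1.5; controls are left without a call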
Here is an unselected part of about 18,000 reagents tested. Of all reagents, about 2,900 (16%) were called active. 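Calls are made per well; low scores hint the gene aids the LPS response, high scores that it dampens it.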 Entries without a mark were called inactive. Repeated entries: four replicate wells of each siRNA pool.

gene symbol	TNF reporter robust z-score
RPE65 (retinoid isomerohydrolase RPE65)	0.21
RPE65 (retinoid isomerohydrolase RPE65)	-0.63
RPE65 (retinoid isomerohydrolase RPE65)	0.11
RPE65 (retinoid isomerohydrolase RPE65)	1.49
DDR1 (discoidin domain receptor tyrosine kinase 1)	0.5
DDR1 (discoidin domain receptor tyrosine kinase 1)	1.18
DDR1 (discoidin domain receptor tyrosine kinase 1)	0.76
DDR1 (discoidin domain receptor tyrosine kinase 1)	1.69
FZD6 (frizzled class receptor 6)	-0.52
FZD6 (frizzled class receptor 6)	0.51
FZD6 (frizzled class receptor 6)	0.67
FZD6 (frizzled class receptor 6)	0.48
TTC17 (tetratricopeptide repeat domain 17)	-0.79
TTC17 (tetratricopeptide repeat domain 17)	-1.45
TTC17 (tetratricopeptide repeat domain 17)	-1.75 (active)
TTC17 (tetratricopeptide repeat domain 17)	-0.91
MMP3 (matrix metallopeptidase 3)	-0.58
MMP3 (matrix metallopeptidase 3)	-0.43
MMP3 (matrix metallopeptidase 3)	-0.49
MMP3 (matrix metallopeptidase 3)	-0.55
LPAR2 (lysophosphatidic acid receptor 2)	-0.22
LPAR2 (lysophosphatidic acid receptor 2)	2.12
LPAR2 (lysophosphatidic acid receptor 2)	1.06
LPAR2 (lysophosphatidic acid receptor 2)	1.25
LRRN2 (leucine rich repeat neuronal 2)	-0.33
LRRN2 (leucine rich repeat neuronal 2)	-1.25
LRRN2 (leucine rich repeat neuronal 2)	-1.67 (active)
LRRN2 (leucine rich repeat neuronal 2)	-1.1
HLA-DRB4 (major histocompatibility complex, class II, DR beta 4)	10.8 (active)
HLA-DRB4 (major histocompatibility complex, class II, DR beta 4)	-0.52
HLA-DRB4 (major histocompatibility complex, class II, DR beta 4)	0.25
HLA-DRB4 (major histocompatibility complex, class II, DR beta 4)	1.32
GLP1R (glucagon like peptide 1 receptor)	-0.2
GLP1R (glucagon like peptide 1 receptor)	-0.36
GLP1R (glucagon like peptide 1 receptor)	-0.59
GLP1R (glucagon like peptide 1 receptor)	-0.14
CD302 (CD302 molecule)	-0.9
CD302 (CD302 molecule)	-1.3
CD302 (CD302 molecule)	-1.38
CD302 (CD302 molecule)	-0.61
CRYBA2 (crystallin beta A2)	1.1
CRYBA2 (crystallin beta A2)	1.97
CRYBA2 (crystallin beta A2)	0.61
CRYBA2 (crystallin beta A2)	2.1
BICC1 (BicC family RNA binding protein 1)	-0.34
BICC1 (BicC family RNA binding protein 1)	-1.04
BICC1 (BicC family RNA binding protein 1)	-0.31
BICC1 (BicC family RNA binding protein 1)	0.17
GPX3 (glutathione peroxidase 3)	-1.68 (active)
GPX3 (glutathione peroxidase 3)	-1.47
GPX3 (glutathione peroxidase 3)	-1.24
GPX3 (glutathione peroxidase 3)	-0.61
SREK1IP1 (SREK1 interacting protein 1)	-0.33
SREK1IP1 (SREK1 interacting protein 1)	0.77
SREK1IP1 (SREK1 interacting protein 1)	-0.22
SREK1IP1 (SREK1 interacting protein 1)	-0.12
SLC38A8	-0.44
SLC38A8	-0.02
SLC38A8	-1.26
SLC38A8	-1.05
SHPRH (SNF2 histone linker PHD RING helicase)	-0.51
SHPRH (SNF2 histone linker PHD RING helicase)	-0.02
SHPRH (SNF2 histone linker PHD RING helicase)	0.33
SHPRH (SNF2 histone linker PHD RING helicase)	0.47
KAZN (kazrin, periplakin interacting protein)	1.06
KAZN (kazrin, periplakin interacting protein)	0.47
KAZN (kazrin, periplakin interacting protein)	0.97
KAZN (kazrin, periplakin interacting protein)	-0.36
LGALS13 (galectin 13)	1.26
LGALS13 (galectin 13)	0.15
LGALS13 (galectin 13)	0.17
LGALS13 (galectin 13)	1.65
PCYT2 (phosphate cytidylyltransferase 2, ethanolamine)	-0.56
PCYT2 (phosphate cytidylyltransferase 2, ethanolamine)	-0.52
PCYT2 (phosphate cytidylyltransferase 2, ethanolamine)	-0.96
PCYT2 (phosphate cytidylyltransferase 2, ethanolamine)	0.42
SYF2 (SYF2 pre-mRNA splicing factor)	1.46
SYF2 (SYF2 pre-mRNA splicing factor)	-0.65
SYF2 (SYF2 pre-mRNA splicing factor)	-0.8
SYF2 (SYF2 pre-mRNA splicing factor)	-1.06
TMEM179B (transmembrane protein 179B)	0.19
TMEM179B (transmembrane protein 179B)	-0.56
TMEM179B (transmembrane protein 179B)	-0.11
TMEM179B (transmembrane protein 179B)	-0.57
ADH1C (alcohol dehydrogenase 1C (class I), gamma polypeptide)	-0.8
ADH1C (alcohol dehydrogenase 1C (class I), gamma polypeptide)	-0.27
ADH1C (alcohol dehydrogenase 1C (class I), gamma polypeptide)	-0.48
ADH1C (alcohol dehydrogenase 1C (class I), gamma polypeptide)	-0.39
PPP2R5B (protein phosphatase 2 regulatory subunit B'beta)	-0.45
PPP2R5B (protein phosphatase 2 regulatory subunit B'beta)	-0.71
PPP2R5B (protein phosphatase 2 regulatory subunit B'beta)	0.35
PPP2R5B (protein phosphatase 2 regulatory subunit B'beta)	-0.23
SPEF2 (sperm flagellar and cilia associated 2)	-0.81
SPEF2 (sperm flagellar and cilia associated 2)	-1.07
SPEF2 (sperm flagellar and cilia associated 2)	-1.31
SPEF2 (sperm flagellar and cilia associated 2)	-1.08
PLAC9 (placenta associated 9)	-0.92
PLAC9 (placenta associated 9)	-1.3
PLAC9 (placenta associated 9)	-0.26
PLAC9 (placenta associated 9)	-1.26
DCLK3 (doublecortin like kinase 3)	2.13
DCLK3 (doublecortin like kinase 3)	1.62
DCLK3 (doublecortin like kinase 3)	1.03
DCLK3 (doublecortin like kinase 3)	1.08
PTDSS2 (phosphatidylserine synthase 2)	-0.53
PTDSS2 (phosphatidylserine synthase 2)	-0.29
PTDSS2 (phosphatidylserine synthase 2)	-0.9
PTDSS2 (phosphatidylserine synthase 2)	0.5
LBR (lamin B receptor)	-0.11
LBR (lamin B receptor)	-0.02
LBR (lamin B receptor)	-0.54
LBR (lamin B receptor)	-0.56
ACSM3 (acyl-CoA synthetase medium chain family member 3)	1.19
ACSM3 (acyl-CoA synthetase medium chain family member 3)	2.29
ACSM3 (acyl-CoA synthetase medium chain family member 3)	1.28
ACSM3 (acyl-CoA synthetase medium chain family member 3)	1.86
FKBP5 (FKBP prolyl isomerase 5)	-0.86
FKBP5 (FKBP prolyl isomerase 5)	-0.33
FKBP5 (FKBP prolyl isomerase 5)	-0.61
FKBP5 (FKBP prolyl isomerase 5)	0.02
GAPT (GRB2 binding adaptor protein, transmembrane)	-0.01
GAPT (GRB2 binding adaptor protein, transmembrane)	0.19
GAPT (GRB2 binding adaptor protein, transmembrane)	-0.06
GAPT (GRB2 binding adaptor protein, transmembrane)	-0.4
STING1 (stimulator of interferon response cGAMP interactor 1)	0.74
STING1 (stimulator of interferon response cGAMP interactor 1)	-0.21
STING1 (stimulator of interferon response cGAMP interactor 1)	-0.5
STING1 (stimulator of interferon response cGAMP interactor 1)	0.5
ATP5MG (ATP synthase membrane subunit g)	0.01
ATP5MG (ATP synthase membrane subunit g)	0.02
ATP5MG (ATP synthase membrane subunit g)	-0.01
ATP5MG (ATP synthase membrane subunit g)	0.18
TSPYL4 (TSPY like 4)	0.63
TSPYL4 (TSPY like 4)	1.24
TSPYL4 (TSPY like 4)	1.36
TSPYL4 (TSPY like 4)	1.97
PEAR1 (platelet endothelial aggregation receptor 1)	-0.64
PEAR1 (platelet endothelial aggregation receptor 1)	-0.46
PEAR1 (platelet endothelial aggregation receptor 1)	-0.33
PEAR1 (platelet endothelial aggregation receptor 1)	-0.2
